Experimental data taken from patent US20170095512A1, “METHODS OF INDUCING MYELINATION AND MATURATION OF OLIGODENDROCYTES” (KADIMASTEM LTD., priority 2014, published 2017).
For at least one compound, name, drawing or mass did not settle the structure.

System: human OPC derived from ES cells (O4+ cells)
Experiment: hOPC differentiation assay, O4+ cells (immunostaining, high content screening)
Type: cell-based
Protocol: In order to initiate differentiation 20,000 GPCs were seeded in each well of Matrigel coated plates of 96 wells, or on PolyD-Lysine/laminin (PDL/lam)-coated 96 well plates. Cells were grown in GM media for two to three days. Then GM was replaced by differentiation medium without growth factors, (DMEM/F12, 1% B27, 0.5% N2, Vitamin C (Sigma, 50 ug/ml). Differentiation medium was supplemented with the following tested compounds: […] All media were replaced every other day. Oligodendrocytes were characterized by the presence of the antigen detected by the monoclonal antibody O4 (IgM (R&D). Living cells reacted with O4 antibody diluted 1/200 in medium without growth factors (50 ul/well) and left for 40 minutes in the incubator at 37° C., washed once with GM, fixed with PFA 4% (170 ul per well) for 20 minutes at room temperature, washed 3 times with PBS. […] ArrayScan VTI HCS reader system (Cellomis, Thermo-scientific) was used for scanning at least 20 fields for each tested well under 10× objective in both assays (differentiation and myelination). […] For myelination assay, the same morphological parameters were tested and in addition: areas of myelinated axons in pixels (MBP&NF overlap area) and Number of myelinated regions (MBP&NF overlap count) were also analyzed. […]

## c1cc(-c2cnn3cc(-c4ccc(OCCN5CCCCC5)cc4)cnc23)ccn1 [Dorsomorphin]
  O4+ cells number / conversion of Olig2+ cells into O4+ cells (summary statement): strongly inhibits
